According to patent publication US20050261292A1, “Pharmaceutical composition containing N-sulfamoyl-N'-arylpiperazines for the treatment or inhibition of obesity and related conditions” (Solvay Pharmaceuticals GmbH, priority 2004, published 2005):

Tested on: dietary obese female Wistar rats
Experiment: Chronic influence on food and water intake and body weight gain in vivo (carcass composition, plasma parameters)
Set-up: species or system rat
Conditions: 28 days
Protocol: 4. Chronic Influence on Food and Water Intake and Body Weight Gain in vivo
Female Wistar rats (weight range 250-300 g; Charles River, Margate, Kent) were housed in pairs in polypropylene cages with solid floors and sawdust bedding at a temperature of 21±4° C. and 55±20% humidity. Animals were maintained on a reverse phase light-dark cycle (lights off for 8 hours from 10.00-18.00 h) during which time the room was illuminated by red light. Animals had free access to powdered high fat diet (VRF1 plus 20% lard), ground chocolate, ground peanuts and tap water at all times. […] At least two weeks before the start of the baseline readings, animals were housed individually in polypropylene cages with wire grid floors to enable the food intake of each rat to be recorded. […]
The test substance of example 2 was suspended in 1% Tylose MH50, 0.1% poloxamer 188 and administered by oral gavage (2 ml/kg). […] At each reading, the tray below each cage was examined for spilt food, which was returned to the appropriate jar before weighing. […]
Animals were killed at the end of the study (by CO2 to minimize any fluid loss) on day 29 and blood samples (5 ml whole blood/animal) were collected by cardiac puncture. […] Body fat, protein, water and ash levels of the carcasses were determined using standard chemical analysis techniques. […]

## NS(=O)(=O)N1CCN(c2ccccc2)CC1 [Example 2, N-Sulfamoyl-N′-phenylpiperazine hydrochloride]
30 mg/kg po twice daily (0 h, 4 h)
  Total of water, fat, protein and ash, percent final body weight: 98.6%
50 mg/kg po twice daily (0 h, 4 h)
  Total of water, fat, protein and ash, percent final body weight: 98.4%

Structures can show the parent of a compound that is named as a salt.
